# Measurements from PubChem BioAssay AID624297 (National Center for Advancing Translational Sciences (NCATS), 2012).
# The whole screen tested about 340,000 compounds, of which about 6,200 (1.8%) were called active. Inconclusive means that the source gave no clear call. Such entries were picked first, then a sample of the others. The call rests on the fitted dose curve; in most records, active means well fitted activation curve with a large enough effect; inconclusive means small, poorly fitted or top-dose-only effect; inactive means no such curve, though single readings can be large or run the other way. Potencies of inconclusive entries are doubtful fits and often do not repeat.
# Assay: A quantitative high throughput screen for small molecules that induce DNA re-replication in SW480 colon adenocarcinoma cells. Further: nearly all actives have a fitted effect of over 55% in size. On re-replication activation: % of control where 0% means no effect.
# Details: Hoechst DNA content imaging, 48 h; re-replication activation: at 46.1 µM (top of the series)
# Method in brief: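 Compounds, transferred as 23 nL by pin tool, were incubated with cells for 48 hr; DNA content per nucleus was then quantified by Hoechst staining and fluorescence plate imaging.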
# Potency means the concentration at half of the fitted maximal effect.
SMILES,re-replication activation,Potency
O=C(Nc1ccc(Cl)c(S(=O)(=O)N2CCOCC2)c1)c1ccc(Cl)nc1,inactive: 10.9%,–
CCOC(=O)N1CCN(c2c(NCc3ccc(F)cc3)c(=O)c2=O)CC1,–,active: 3.26 µM
CCOc1ccc(/C=C(/C#N)c2nnc(N3CCOCC3)n2-c2ccccc2)cc1OC,inactive: -2.36%,–
COc1ccc(NC(=O)c2c(F)cccc2Cl)cc1S(=O)(=O)N1CCOCC1,inactive: -0.993%,–
O=C(CCN1CCN(c2ccccc2)CC1)Nc1ccccc1,–,"inconclusive: 8.2 µM [activator, partial curve, poor fit]"
c1ccc(Cc2nc3ccccc3s2)cc1,–,"inconclusive: 29.1 µM [activator, single point]"
O=C(NC(=S)NCc1ccccc1)c1ccccc1F,inactive: -3.15%,–
CCN(c1ccc(F)cc1)S(=O)(=O)c1ccc2[nH]cc(C(=O)NCCCN3CCOCC3)c(=O)c2c1,–,"inconclusive: 29.1 µM [activator, single point]"
Nc1nc(SCc2cccc([N+](=O)[O-])c2)n[nH]1,inactive: -4.99%,–
COc1ccccc1OCC(=O)N(Cc1nc(-c2ccccc2)no1)C(C)C,–,"inconclusive: 8.2 µM [activator, partial curve, poor fit]"
COc1ccc(C(=O)Nc2ccc(Cl)cn2)cc1Cl,–,"inconclusive: 20.6 µM [activator, single point]"
Cc1cc(C)cc(Nc2c3c(nc4ncnn24)CCC3)c1,–,"inconclusive: 29.1 µM [activator, single point]"
CC(=O)C(=Nc1cccc(Cl)c1)NNc1ccccc1C,–,"inconclusive: 32.6 µM [activator, partial curve, poor fit]"
COC(=O)c1sc2nc3c(c(-c4cccs4)c2c1N)CCCC3,–,active: 18.4 µM
c1csc(-c2nnc(Cc3cccc4ccccc34)o2)c1,inactive: -2.08%,–
CC(C)N(C(=O)[C@H]1C[C@H](CC(=O)NCCC2=CCCCC2)C(=O)N2CCc3c([nH]c4ccc(Cl)cc34)[C@]12C)C(C)C,–,"inconclusive: 18.4 µM [activator, partial curve, poor fit]"
O=C(NCc1ccc(F)cc1)c1ccc(CS(=O)(=O)Cc2ccccc2F)o1,–,"inconclusive: 23.1 µM [activator, single point]"
CCN(Cc1ccccc1)C(=O)Cn1cc(S(=O)(=O)NC)c(S(=O)(=O)NC)c1,inactive: -10.8%,–
Nc1nc(CSc2ccc(Cl)cc2)nc(N2CCCCC2)n1,inactive: -0.658%,–
COc1ccc(S(=O)(=O)N2CCC(C(=O)N3CCc4ccccc4C3)CC2)cc1Cl,–,"inconclusive: 20.6 µM [activator, partial curve, poor fit]"
CC(=O)Nc1ccc(S(=O)(=O)N2CCN(c3cc(C)nc4ccccc34)CC2)cc1,inactive: 11.8%,–
CC(O)Cc1cn([C@@H](CCCCNC(=O)OC(C)(C)C)C(=O)N2CCN(C(=O)OC(C)(C)C)CC2)nn1 (stereo partly drawn),inactive: -5.1%,–

SMILES,re-replication activation,Potency
Cc1c(/C=N\NC(=O)c2cc3ccccc3o2)c2ccccc2n1C,–,active: 9.2 µM
COc1ccc2c(c1)C(=O)N1[C@H]3c4cc(C)ccc4OC[C@@H]3[C@H](c3ccccc3)[C@]1(C)C(=O)N2,–,"inconclusive: 2.91 µM [activator, partial curve, poor fit]"
C#CCN1C(=O)C(O)(CC(=O)c2cc(OC)ccc2OC)c2ccccc21 (stereo not drawn),–,"inconclusive: 25.9 µM [activator, single point]"
COc1cccc2cc(C(=O)C3=C(O)C(=O)N(CCN4CCOCC4)C3c3ccc(C)o3)oc12 (stereo not drawn),–,"inconclusive: 3.26 µM [activator, single point]"
CC(C)(C)n1nnnc1C(c1cccs1)N(Cc1ccccc1)Cc1ccco1 (stereo not drawn),inactive: 2.2% [at 9.22 µM],–
COc1ccc(C(=O)OCC(=O)N2C(C)CCCC2C)cc1S(=O)(=O)N1CCOCC1 (stereo not drawn),–,"inconclusive: 2.91 µM [activator, full curve]"
Cc1ccc(S(=O)(=O)N(C)C)cc1NC(=O)COC(=O)/C=C/c1ccc2ccccc2n1,–,"inconclusive: 23.1 µM [activator, single point]"
COc1ccc(C(CNC(=O)C(CCSC)NC(=O)c2ccccc2Cl)N2CCOCC2)cc1 (stereo not drawn),–,"inconclusive: 16.4 µM [activator, partial curve, poor fit]"
CCc1ccc(S(=O)(=O)Nc2cc3c(cc2N2CCOCC2)n(C)c(=O)c(=O)n3C)cc1,inactive: -18.1%,–
CC(c1ccccc1)N1CC(C(=O)N2CCN(Cc3ccc(C#N)cc3)CC2)CC1=O (stereo not drawn),–,"inconclusive: 1.3 µM [activator, partial curve, poor fit]"
COc1ccccc1NC(=O)Nc1ccc(C(=O)N2CCCCC2)cc1,inactive: -8.23%,–
CCOC(=O)C1=C(C)NC(C)=C(C(=O)OCC)C1C(=O)OCC(=O)NCCc1ccccc1,–,"inconclusive: 32.6 µM [activator, partial curve, poor fit]"
Nc1nc2ccccc2n1CCOc1ccc(F)cc1,inactive: -7.96%,–
O=C(CN1CCN(c2ccccn2)CC1)N1c2ccccc2Sc2ccc(C(F)(F)F)cc21,–,"inconclusive: 32.6 µM [activator, partial curve, poor fit]"
Cc1cc(C)c(S(=O)(=O)NCc2cn3c(C)csc3n2)cc1C,–,"inconclusive: 0.259 µM [activator, full curve, poor fit]"
COCCCNC(=S)N1CCC(C(=O)c2ccc(Cl)cc2)CC1,–,"inconclusive: 0.231 µM [activator, full curve, poor fit]"
COc1ccc(Cl)cc1C(=O)NCCS(=O)(=O)N1CCN(c2ccccc2F)CC1,–,"inconclusive: 3.66 µM [activator, partial curve, poor fit]"
Cc1cccn2c(=O)c3cc(C(=O)NCCCN4CCCC4=O)n(C)c3nc12,–,"inconclusive: 4.11 µM [activator, single point]"
CCOc1cc(/C=N/N=C(N)N)ccc1OCc1ccc(Cl)cc1,–,"inconclusive: 29.1 µM [activator, single point]"
O=S(=O)(c1ccc(Cl)cc1)c1nc(-c2ccccc2F)oc1NCCCN1CCOCC1,–,"inconclusive: 16.4 µM [activator, single point]"
COc1ccc(C2=Nn3c(nnc3-c3ccccc3OC)SC2)cc1OC1CCCC1,–,active: 2.31 µM

# 2 of these compounds in another layout.
SMILES | re-replication activation | Potency
O=S(=O)(c1ccc(Cl)cc1)c1nc(-c2ccccc2F)oc1NCCCN1CCOCC1 | – | inconclusive: 16.4 µM [activator, single point]
COc1ccc(C2=Nn3c(nnc3-c3ccccc3OC)SC2)cc1OC1CCCC1 | – | active: 2.31 µM
